The text below walks through data of paper PMC7782687, “Insights into SusCD-mediated glycan import by a prominent gut symbiont” (Nature Communications, 2021).

No constants are given. Whether binding was seen depends on the method and setting. In cells and extracts the contact can be indirect. A result given as binding can be weak or reduced; the word gives no strength. Tags and fused reporters may be left off the sequences shown.

In this test the target is T1, Bt1762 (SusD) of the Bacteroides thetaiotaomicron levan utilisation locus, with C-terminal His6 tag (Bacteroides thetaiotaomicron) (UniProt Q8A6W4).
T1 sequence (chain, lipid anchor (lipoprotein)): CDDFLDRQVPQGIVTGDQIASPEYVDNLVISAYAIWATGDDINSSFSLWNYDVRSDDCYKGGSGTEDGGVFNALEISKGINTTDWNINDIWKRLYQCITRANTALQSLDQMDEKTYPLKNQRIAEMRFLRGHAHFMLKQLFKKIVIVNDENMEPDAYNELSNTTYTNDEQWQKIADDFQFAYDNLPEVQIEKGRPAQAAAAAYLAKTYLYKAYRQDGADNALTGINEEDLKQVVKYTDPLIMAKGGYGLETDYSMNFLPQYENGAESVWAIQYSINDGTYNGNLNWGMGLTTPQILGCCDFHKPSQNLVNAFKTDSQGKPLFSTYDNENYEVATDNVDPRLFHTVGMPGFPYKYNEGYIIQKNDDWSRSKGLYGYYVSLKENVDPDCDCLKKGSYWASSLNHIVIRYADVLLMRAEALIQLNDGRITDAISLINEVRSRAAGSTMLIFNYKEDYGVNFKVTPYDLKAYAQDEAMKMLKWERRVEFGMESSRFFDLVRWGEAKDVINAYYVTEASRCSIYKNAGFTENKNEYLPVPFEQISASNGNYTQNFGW
In words: co-purification (IMAC by the His6 tag on Bt1762, SDS-PAGE); OM fractions (LDAO extract) of WT (Bt1762-his) and mutant strains grown on MM fructose; Ni column, 0.2% LDAO in 20 mM Tris, 300 mM NaCl pH 8.

For the substance “Bt1763 (SusC) TonB box mut (TonB box mutated to all-Ala) (from UniProt Q8A6W3)”, the binding entry was “binds”. Then “Bt1763 (SusC) ΔNTE (N-terminal extension deleted) (from UniProt Q8A6W3)”, with “binds”; and “Bt1763 (SusC) ΔTonB box (from UniProt Q8A6W3)”, with “binds”.

As for “Bt1763 (SusC) Δhinge1 (loop L7 deleted) (from UniProt Q8A6W3)”, the binding result is listed as “binds”.

“Bt1763 (SusC) Δhinge2 (loop L6 deleted) (from UniProt Q8A6W3)”: the binding result is reported as “binds”.
